Laboratory results published in patent US6558686B1, “Method of coating medical devices with a combination of antiseptics and antiseptic coating therefor” (Baylor College of Medicine, priority 1995, dated 2003).

Key:
Experiment in all cases: Zones of inhibition, single-layer coated stainless steel cylinders (Example 4)
Details in all cases: single-layer coated stainless steel cylinder, 18-24 hours at 37° C.
[1] = tested on: P. aerug; assay type: cell-based
[2] = tested on: Candida albicans; assay type: cell-based
[3] = tested on: S. epidermidis

In the case of `CCCCCCCCCCCCCCCC[n+]1ccccc1.[Cl-]` [Cetylpyridinium, 1-Hexadecylpyridinium chloride], the “Zones of inhibition P. aerug” value [1] is reported as 0 m.m, the “Zones of inhibition Candida albicans” value [2] is reported as 28 m.m and the “Zones of inhibition S. epidermidis” value [3] is reported as 33 m.m.
